Test results: publication PMC5082931

By UniProt entry, the sequences of proteins in these tests, tags left out. Where a name states a change or a piece, a line headed by the entry shows the natural chain unless it says otherwise.
UniProt Q8BNA6: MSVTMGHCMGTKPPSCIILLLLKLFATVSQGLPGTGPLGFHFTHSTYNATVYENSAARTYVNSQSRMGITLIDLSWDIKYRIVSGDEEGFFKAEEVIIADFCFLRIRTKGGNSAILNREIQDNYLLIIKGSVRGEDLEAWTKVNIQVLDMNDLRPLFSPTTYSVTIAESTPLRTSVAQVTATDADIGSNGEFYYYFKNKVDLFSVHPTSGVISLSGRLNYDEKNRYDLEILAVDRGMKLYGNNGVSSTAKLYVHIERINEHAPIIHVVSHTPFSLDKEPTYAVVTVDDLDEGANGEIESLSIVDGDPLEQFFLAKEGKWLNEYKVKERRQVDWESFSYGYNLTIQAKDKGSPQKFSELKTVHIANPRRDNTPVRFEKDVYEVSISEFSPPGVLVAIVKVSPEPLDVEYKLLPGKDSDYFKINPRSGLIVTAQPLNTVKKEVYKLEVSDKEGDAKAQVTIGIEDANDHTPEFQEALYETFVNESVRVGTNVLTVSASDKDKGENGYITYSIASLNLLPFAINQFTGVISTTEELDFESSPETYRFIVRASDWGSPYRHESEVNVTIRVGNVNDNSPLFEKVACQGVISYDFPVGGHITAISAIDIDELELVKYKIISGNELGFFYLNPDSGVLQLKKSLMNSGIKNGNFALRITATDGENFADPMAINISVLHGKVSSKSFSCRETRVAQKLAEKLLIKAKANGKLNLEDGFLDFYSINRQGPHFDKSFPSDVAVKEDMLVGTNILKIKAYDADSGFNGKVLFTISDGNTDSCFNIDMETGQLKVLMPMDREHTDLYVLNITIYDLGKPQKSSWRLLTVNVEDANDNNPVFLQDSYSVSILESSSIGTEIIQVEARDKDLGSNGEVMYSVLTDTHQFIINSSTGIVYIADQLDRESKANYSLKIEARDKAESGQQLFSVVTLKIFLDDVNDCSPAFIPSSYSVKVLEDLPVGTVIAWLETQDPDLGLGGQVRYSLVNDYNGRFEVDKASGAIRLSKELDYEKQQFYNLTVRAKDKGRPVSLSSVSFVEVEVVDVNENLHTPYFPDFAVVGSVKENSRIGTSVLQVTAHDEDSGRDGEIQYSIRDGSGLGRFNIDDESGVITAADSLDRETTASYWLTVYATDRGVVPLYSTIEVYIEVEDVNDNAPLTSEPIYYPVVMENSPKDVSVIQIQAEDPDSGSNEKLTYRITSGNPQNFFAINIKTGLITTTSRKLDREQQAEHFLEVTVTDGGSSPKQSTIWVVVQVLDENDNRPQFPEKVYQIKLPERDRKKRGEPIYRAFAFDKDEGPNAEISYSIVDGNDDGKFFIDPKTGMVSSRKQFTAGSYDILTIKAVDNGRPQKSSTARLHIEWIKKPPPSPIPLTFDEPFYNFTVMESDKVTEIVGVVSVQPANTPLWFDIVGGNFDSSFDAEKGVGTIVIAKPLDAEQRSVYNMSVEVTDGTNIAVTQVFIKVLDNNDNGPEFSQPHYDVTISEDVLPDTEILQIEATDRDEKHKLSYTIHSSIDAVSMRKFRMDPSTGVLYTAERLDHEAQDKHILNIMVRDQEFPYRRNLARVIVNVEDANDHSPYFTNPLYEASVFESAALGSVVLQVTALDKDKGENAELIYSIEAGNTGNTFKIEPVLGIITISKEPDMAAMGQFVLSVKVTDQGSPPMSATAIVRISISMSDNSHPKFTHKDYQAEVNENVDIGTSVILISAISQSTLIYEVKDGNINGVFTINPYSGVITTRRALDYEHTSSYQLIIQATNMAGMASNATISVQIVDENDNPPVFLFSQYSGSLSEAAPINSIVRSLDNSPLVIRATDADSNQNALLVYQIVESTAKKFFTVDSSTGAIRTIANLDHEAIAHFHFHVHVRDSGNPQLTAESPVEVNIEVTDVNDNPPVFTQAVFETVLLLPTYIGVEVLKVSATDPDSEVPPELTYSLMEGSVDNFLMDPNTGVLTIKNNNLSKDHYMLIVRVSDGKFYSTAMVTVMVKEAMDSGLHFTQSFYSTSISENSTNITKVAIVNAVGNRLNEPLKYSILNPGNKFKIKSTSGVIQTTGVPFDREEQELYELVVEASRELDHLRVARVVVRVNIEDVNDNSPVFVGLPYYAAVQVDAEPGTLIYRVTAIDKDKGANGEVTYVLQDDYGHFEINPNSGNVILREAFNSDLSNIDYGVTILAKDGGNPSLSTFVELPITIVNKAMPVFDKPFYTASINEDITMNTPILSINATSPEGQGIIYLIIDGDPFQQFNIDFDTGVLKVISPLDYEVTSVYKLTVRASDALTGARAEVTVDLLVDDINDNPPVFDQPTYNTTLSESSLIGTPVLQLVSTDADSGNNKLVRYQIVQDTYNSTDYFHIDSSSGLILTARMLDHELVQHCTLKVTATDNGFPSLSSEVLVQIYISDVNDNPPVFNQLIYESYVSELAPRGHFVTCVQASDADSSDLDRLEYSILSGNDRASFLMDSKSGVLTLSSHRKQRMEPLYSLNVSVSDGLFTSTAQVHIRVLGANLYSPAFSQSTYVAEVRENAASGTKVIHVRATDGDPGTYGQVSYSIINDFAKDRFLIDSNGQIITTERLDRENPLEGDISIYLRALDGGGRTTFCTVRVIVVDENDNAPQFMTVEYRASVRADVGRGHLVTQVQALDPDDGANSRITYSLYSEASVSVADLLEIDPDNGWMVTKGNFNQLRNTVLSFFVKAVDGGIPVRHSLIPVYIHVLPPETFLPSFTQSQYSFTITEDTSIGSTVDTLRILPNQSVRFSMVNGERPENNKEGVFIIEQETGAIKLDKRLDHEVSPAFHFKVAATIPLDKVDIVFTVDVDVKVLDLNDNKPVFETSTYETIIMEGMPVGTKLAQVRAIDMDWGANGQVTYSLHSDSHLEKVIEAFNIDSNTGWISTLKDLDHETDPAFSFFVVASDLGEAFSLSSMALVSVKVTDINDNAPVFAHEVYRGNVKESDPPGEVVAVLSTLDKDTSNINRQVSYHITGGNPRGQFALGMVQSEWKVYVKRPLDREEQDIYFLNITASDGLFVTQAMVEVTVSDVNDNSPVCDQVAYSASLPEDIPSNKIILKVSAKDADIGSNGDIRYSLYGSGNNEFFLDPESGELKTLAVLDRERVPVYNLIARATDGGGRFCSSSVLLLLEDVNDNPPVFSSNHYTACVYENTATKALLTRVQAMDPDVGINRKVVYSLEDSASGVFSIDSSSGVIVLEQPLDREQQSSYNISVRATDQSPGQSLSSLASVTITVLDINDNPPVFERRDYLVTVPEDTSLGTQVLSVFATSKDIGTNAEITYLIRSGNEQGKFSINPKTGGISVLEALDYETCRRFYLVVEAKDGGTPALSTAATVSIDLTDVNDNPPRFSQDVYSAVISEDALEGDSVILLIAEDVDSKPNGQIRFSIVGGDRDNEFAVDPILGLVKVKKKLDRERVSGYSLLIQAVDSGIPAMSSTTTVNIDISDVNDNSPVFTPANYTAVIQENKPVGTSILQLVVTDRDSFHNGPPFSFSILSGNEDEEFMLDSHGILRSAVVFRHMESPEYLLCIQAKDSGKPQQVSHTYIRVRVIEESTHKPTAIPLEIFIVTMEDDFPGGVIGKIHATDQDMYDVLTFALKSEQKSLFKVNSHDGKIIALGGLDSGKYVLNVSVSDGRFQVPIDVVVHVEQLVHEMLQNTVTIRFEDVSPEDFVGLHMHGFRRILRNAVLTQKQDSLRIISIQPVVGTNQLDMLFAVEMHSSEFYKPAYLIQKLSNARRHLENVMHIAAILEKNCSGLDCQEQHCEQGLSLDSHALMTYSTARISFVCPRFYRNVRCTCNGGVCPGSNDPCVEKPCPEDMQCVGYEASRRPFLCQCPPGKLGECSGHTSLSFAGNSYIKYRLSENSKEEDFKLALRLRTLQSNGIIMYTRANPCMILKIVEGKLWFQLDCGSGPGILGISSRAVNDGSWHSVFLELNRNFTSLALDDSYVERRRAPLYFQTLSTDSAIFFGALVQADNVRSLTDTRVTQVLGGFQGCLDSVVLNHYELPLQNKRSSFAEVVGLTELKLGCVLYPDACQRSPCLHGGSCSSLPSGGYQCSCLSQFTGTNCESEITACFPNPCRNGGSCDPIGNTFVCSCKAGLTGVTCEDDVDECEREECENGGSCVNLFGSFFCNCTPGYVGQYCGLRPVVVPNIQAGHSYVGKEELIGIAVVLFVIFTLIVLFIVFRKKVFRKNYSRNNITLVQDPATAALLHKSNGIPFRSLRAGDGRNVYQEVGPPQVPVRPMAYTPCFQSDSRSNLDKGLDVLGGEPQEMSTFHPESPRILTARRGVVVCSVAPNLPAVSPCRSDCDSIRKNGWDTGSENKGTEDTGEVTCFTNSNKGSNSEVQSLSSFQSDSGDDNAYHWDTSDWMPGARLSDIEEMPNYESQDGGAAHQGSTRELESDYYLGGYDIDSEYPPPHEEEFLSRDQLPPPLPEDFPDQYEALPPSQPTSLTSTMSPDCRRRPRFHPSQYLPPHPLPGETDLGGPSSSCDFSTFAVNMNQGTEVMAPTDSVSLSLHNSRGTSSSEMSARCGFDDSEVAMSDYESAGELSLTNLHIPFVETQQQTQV
UniProt P33176: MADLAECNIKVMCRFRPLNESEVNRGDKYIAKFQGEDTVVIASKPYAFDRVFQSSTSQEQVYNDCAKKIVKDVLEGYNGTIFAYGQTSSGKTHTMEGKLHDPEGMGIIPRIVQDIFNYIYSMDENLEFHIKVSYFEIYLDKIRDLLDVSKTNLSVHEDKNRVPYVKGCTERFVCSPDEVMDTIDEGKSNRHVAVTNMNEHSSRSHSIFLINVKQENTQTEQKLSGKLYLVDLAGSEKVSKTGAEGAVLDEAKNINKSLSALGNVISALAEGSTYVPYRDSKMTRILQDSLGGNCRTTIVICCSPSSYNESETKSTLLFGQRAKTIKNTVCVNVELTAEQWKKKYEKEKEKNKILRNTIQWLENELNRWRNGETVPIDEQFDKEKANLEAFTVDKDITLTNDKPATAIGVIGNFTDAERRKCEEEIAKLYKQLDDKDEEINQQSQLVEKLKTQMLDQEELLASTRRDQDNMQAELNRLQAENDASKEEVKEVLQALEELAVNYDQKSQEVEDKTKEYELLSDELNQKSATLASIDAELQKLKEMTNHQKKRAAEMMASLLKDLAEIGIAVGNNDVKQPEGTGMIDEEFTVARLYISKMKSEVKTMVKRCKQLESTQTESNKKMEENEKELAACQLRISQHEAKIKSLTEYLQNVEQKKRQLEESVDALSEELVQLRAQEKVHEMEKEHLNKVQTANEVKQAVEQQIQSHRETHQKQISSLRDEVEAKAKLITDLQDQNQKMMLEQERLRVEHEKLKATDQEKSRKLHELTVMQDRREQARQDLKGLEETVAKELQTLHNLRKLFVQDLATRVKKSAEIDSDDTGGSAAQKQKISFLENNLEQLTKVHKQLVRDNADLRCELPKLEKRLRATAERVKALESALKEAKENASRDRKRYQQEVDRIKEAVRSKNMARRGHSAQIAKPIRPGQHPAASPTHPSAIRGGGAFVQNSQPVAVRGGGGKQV
UniProt P08138: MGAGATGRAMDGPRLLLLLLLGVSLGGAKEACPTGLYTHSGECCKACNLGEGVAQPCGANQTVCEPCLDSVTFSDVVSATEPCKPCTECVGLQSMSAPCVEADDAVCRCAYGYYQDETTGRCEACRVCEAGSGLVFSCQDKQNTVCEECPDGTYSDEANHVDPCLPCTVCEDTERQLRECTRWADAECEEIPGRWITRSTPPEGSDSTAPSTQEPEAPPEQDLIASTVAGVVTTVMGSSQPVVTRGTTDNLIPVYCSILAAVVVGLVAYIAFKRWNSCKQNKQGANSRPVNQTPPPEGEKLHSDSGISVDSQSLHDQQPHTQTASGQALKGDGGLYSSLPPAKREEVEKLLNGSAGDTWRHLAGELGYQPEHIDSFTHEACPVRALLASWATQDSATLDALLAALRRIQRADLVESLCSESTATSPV

What was measured:
GST-Fat3 ^ΔDNAYH (mouse) = GST-Fat3 ^ΔDNAYH (mouse) (UniProt Q8BNA6); test: pull-down; GST-Fat3 fusion proteins expressed in HEK293 cells, cleared lysate (20mM Tris-HCl pH 8.0, 137mM NaCl, 2mM EDTA, 1% NP-40, 10% glycerol) on Glutathione Sepharose 4B for 2h at 4°C; endogenous co-purified proteins seen by silver staining (band identified by tandem mass spectrometry) and by Western …
YFP-Kif5B = YFP-Kif5B (UniProt P33176); test: co-IP; HEK293 cells co-transfected with YFP-Kif5B and HA-tagged Fat3 or RFP-tagged P75^NTR constructs; YFP-Kif5B precipitated with goat anti-GFP antibodies, overnight at 4°C, lysis buffer 50mM Tris-HCl pH 8.0, 150mM NaCl, 1mM EDTA, 1% NP-40, 10% glycerol; non-specific IgG as control

binding (GST-Fat3 ^ΔDNAYH (mouse)) | binding (YFP-Kif5B) | Substance
no binding | – | Kif5B (endogenous, HEK293 cells) (from UniProt P33176 1-963)
– | no binding | P75-RFP ^ΔDGGLYS (from UniProt P08138) (receptor)

Results are given in words; binding and its absence hold for the method and conditions named. In cells and extracts the contact can be indirect.
